{
  "source": "PubChem BioAssay AID2685",
  "about": "(National Center for Advancing Translational Sciences (NCATS), 2010)",
  "experiment": "qHTS Assay for Lipid Storage Modulators in Drosophila S3 Cells;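 on cell number change: cells counted by Cell Tracker Red CMTPX staining in the red channel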",
  "conditions": "BODIPY lipid droplet fluorescence, 18-24 h; for cell number change: measured here: cell count max response, cells fed with added oleic acid",
  "procedure,_shortened": "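Drosophila S3 cells got compounds at several concentrations plus oleic acid (400 uM solution). Laser-scanning cytometry with 488 nm excitation read lipid droplets at 500-530 nm and cells at 575-640 nm. Percent activity was relative to 20 uM Triacsin C.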",
  "key": {"[1]": {"conditions": "measured here: lipid fluorescence (Fed channel) AC50, cells fed with added oleic acid"}, "[2]": {"conditions": "measured here: cell number channel AC50, cells fed with added oleic acid"}},
  "note": "The other results are listed elsewhere or left out. Shown are side measurements of this screen, not its main read-out; they come without a call. Compounds called inactive in the main read-out are mostly missing here. Potencies come from curve fits of mixed quality, noted in brackets.",
  "data": [
    {"smiles": "COc1cc(/C=N/NC(=O)CNC(=O)/C=C/c2ccco2)cc(OC)c1OC", "values": [
      {"measurement": "cell number change", "result": -0.427, "unit": "%"},
      {"measurement": "AC50", "setting": "[1]", "result": "0.184 µM [falling, full curve, poor fit]"}
    ]},
    {"smiles": "Cc1cc(NC(=O)CSc2ncnc3ccccc23)no1", "values": [
      {"measurement": "AC50", "setting": "[2]", "result": "1.46 µM [rising, partial curve]"},
      {"measurement": "AC50", "setting": "[1]", "result": "1.16 µM [rising, full curve]"}
    ]},
    {"smiles": "COc1ccc(C2=CC(=O)OC(C)(c3ccccc3)O2)cc1", "note": "(configuration not stated)", "values": [
      {"measurement": "cell number change", "result": 13.9, "unit": "%"},
      {"measurement": "AC50", "setting": "[1]", "result": "29.1 µM [rising, single point]"}
    ]},
    {"smiles": "CCCCCC(=O)Nc1sc(C)c(C)c1C#N", "values": [
      {"measurement": "cell number change", "result": -7.06, "unit": "%"}
    ]},
    {"smiles": "CC(=O)c1sc(NC(=O)C2CCCN2S(=O)(=O)c2ccccc2F)nc1C", "note": "(configuration not stated)", "values": [
      {"measurement": "AC50", "setting": "[1]", "result": "1.3 µM [rising, partial curve]"}
    ]},
    {"smiles": "COc1ccc(C2(C)NC(=O)N(CC(=O)NC3CCCC3)C2=O)cc1OC", "note": "(configuration not stated)", "values": [
      {"measurement": "cell number change", "result": -4.53, "unit": "%"},
      {"measurement": "AC50", "setting": "[1]", "result": "6.51 µM [rising, single point]"}
    ]},
    {"smiles": "Cc1cc(S(=O)(=O)Nc2ccc3c(c2)COC3=O)ccc1F", "values": [
      {"measurement": "cell number change", "result": -20.6, "unit": "%"},
      {"measurement": "AC50", "setting": "[1]", "result": "4.11 µM [falling, full curve]"}
    ]},
    {"smiles": "Cc1ccc(NS(=O)(=O)Cc2ccccc2)cc1Cl", "values": [
      {"measurement": "cell number change", "result": -45.5, "unit": "%"},
      {"measurement": "AC50", "setting": "[2]", "result": "20.6 µM [falling, partial curve, poor fit]"}
    ]},
    {"smiles": "O=C(CN1C(=O)/C(=C/c2ccccc2)SC1=S)Nc1ncc(Cc2ccccc2)s1", "values": [
      {"measurement": "cell number change", "result": 7.35, "unit": "%"},
      {"measurement": "AC50", "setting": "[1]", "result": "5.17 µM [rising, full curve]"}
    ]},
    {"smiles": "COc1ccc(C(CNC(=O)c2c(C)nn(Cc3ccccc3)c2Cl)N2CCOCC2)cc1", "note": "(configuration not stated)", "values": [
      {"measurement": "cell number change", "result": 5.08, "unit": "%"},
      {"measurement": "AC50", "setting": "[1]", "result": "2.91 µM [rising, partial curve]"}
    ]},
    {"smiles": "COc1ccc([N+](=O)[O-])cc1NC(=O)COC(=O)Cc1cc(OC)c(OC)c(OC)c1", "values": [
      {"measurement": "cell number change", "result": -35.6, "unit": "%"},
      {"measurement": "AC50", "setting": "[2]", "result": "2.91 µM [falling, partial curve]"},
      {"measurement": "AC50", "setting": "[1]", "result": "5.17 µM [falling, partial curve]"}
    ]},
    {"smiles": "O=C(c1cnccn1)N1CCc2ccccc21", "values": [
      {"measurement": "cell number change", "result": -13.8, "unit": "%"},
      {"measurement": "AC50", "setting": "[1]", "result": "0.651 µM [rising, full curve, poor fit]"}
    ]},
    {"smiles": "Cc1cccc(C)c1NC(=O)N1CC=CCC1", "values": [
      {"measurement": "cell number change", "result": -6.38, "unit": "%"}
    ]},
    {"smiles": "CN1CCN(c2nc(-c3ccc(Cl)c(Cl)c3)nc3ccccc23)CC1", "values": [
      {"measurement": "cell number change", "result": -15.9, "unit": "%"},
      {"measurement": "AC50", "setting": "[1]", "result": "32.6 µM [falling, single point]"}
    ]},
    {"smiles": "CCCc1c(C)nn(C(=O)/C(C#N)=N/Nc2ccccc2[N+](=O)[O-])c1C", "values": [
      {"measurement": "cell number change", "result": -12.4, "unit": "%"},
      {"measurement": "AC50", "setting": "[1]", "result": "0.461 µM [falling, full curve, poor fit]"}
    ]},
    {"smiles": "N#Cc1c(N2CCOCC2)nsc1-c1ccc(C(F)(F)F)cc1", "values": [
      {"measurement": "AC50", "setting": "[2]", "result": "6.51 µM [rising, single point]"},
      {"measurement": "AC50", "setting": "[1]", "result": "4.61 µM [rising, full curve, poor fit]"}
    ]},
    {"smiles": "O=C(O)CCn1cc(-c2ccc(Cl)cc2)nc1-c1ccc(Cl)nc1", "values": [
      {"measurement": "cell number change", "result": -3.39, "unit": "%"},
      {"measurement": "AC50", "setting": "[1]", "result": "32.6 µM [rising, single point]"}
    ]}
  ]
}
